Experimental data published in the supplement of paper PMC12823440, “Inhibitors supercharge kinase turnover through native proteolytic circuits” (Nature, 2025).
The list shows a part of the results. Hit calls seldom repeat between salt and free forms of one compound.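 In K562 cells expressing nanoluciferase-fused kinases, luminescence was recorded at 4 h intervals between 2 and 18 h, normalized as percent of control with DMSO at 100% and a positive control at 0%. A significant (2 sigma) signal drop marks a time point as decreased. The authors' rule for a hit is not shown and takes in more than the number of time points.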

The chains behind the UniProt entries cited, without tags or fusion partners. Where a name states a change or a piece, a line headed by the entry shows the natural chain unless it says otherwise.
UniProt Q01974, whole entry: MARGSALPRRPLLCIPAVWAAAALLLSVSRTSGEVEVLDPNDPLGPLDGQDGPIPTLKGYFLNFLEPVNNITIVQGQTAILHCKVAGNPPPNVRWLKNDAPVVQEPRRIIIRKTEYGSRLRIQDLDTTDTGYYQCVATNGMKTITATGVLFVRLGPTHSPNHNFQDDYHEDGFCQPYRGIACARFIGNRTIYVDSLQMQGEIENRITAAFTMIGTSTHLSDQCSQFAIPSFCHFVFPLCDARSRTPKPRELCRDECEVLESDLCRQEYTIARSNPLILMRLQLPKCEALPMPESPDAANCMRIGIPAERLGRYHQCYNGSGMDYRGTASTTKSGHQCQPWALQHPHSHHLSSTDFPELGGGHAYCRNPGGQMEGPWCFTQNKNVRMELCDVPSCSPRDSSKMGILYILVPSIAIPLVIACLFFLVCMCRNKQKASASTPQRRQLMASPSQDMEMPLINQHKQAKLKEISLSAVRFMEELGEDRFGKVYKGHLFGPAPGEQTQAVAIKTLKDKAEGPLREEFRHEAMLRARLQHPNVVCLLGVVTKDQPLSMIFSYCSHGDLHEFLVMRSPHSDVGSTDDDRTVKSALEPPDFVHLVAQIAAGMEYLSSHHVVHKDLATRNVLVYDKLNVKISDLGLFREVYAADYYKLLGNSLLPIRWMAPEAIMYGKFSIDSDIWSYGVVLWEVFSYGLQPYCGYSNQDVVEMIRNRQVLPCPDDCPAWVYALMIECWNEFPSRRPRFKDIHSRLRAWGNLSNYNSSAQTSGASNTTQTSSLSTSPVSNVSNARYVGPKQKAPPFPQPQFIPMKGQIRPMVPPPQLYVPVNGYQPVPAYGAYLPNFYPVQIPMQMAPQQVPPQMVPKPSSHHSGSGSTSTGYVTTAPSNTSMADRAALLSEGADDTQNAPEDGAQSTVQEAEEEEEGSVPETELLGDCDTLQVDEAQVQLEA
UniProt Q15418, whole entry: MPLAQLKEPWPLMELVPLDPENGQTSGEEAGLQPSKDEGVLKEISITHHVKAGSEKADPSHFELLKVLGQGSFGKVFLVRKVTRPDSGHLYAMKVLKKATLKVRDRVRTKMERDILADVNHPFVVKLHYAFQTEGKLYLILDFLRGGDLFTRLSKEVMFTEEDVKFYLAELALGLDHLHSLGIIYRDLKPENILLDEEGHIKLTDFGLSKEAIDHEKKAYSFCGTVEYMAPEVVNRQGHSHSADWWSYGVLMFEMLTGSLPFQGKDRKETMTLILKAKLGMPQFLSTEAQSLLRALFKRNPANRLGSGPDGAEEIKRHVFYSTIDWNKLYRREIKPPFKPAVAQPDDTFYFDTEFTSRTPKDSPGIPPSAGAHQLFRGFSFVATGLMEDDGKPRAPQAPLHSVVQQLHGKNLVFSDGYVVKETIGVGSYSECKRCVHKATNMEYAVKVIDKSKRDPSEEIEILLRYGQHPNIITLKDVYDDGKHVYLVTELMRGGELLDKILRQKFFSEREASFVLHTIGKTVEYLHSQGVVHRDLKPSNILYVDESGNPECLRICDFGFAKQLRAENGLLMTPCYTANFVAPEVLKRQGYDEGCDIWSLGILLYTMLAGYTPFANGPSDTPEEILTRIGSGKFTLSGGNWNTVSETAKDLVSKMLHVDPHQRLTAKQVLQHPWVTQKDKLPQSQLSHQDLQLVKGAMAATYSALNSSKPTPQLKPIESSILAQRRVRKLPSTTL
UniProt Q9NYA1, whole entry: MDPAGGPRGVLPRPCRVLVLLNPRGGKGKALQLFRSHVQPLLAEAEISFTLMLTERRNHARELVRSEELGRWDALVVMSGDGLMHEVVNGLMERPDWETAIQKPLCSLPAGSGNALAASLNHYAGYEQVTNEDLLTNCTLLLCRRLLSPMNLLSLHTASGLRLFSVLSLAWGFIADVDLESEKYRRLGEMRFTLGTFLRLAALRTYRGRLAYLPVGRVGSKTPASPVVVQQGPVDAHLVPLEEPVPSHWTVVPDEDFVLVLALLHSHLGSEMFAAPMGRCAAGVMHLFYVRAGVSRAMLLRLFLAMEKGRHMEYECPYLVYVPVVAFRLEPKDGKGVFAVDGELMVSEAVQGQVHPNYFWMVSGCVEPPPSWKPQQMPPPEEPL
UniProt Q9Y6E0: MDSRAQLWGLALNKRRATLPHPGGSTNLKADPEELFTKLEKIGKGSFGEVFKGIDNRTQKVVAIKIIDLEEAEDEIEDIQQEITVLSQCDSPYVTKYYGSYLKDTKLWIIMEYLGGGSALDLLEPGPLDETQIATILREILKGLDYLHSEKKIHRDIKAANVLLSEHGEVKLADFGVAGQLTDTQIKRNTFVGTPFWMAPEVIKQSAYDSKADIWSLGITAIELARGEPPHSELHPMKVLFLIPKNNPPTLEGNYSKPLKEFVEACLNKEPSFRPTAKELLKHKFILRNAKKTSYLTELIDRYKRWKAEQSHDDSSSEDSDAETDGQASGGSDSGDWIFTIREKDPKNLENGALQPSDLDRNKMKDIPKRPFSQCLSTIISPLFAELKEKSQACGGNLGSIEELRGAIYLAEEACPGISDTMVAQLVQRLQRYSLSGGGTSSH
UniProt Q15208: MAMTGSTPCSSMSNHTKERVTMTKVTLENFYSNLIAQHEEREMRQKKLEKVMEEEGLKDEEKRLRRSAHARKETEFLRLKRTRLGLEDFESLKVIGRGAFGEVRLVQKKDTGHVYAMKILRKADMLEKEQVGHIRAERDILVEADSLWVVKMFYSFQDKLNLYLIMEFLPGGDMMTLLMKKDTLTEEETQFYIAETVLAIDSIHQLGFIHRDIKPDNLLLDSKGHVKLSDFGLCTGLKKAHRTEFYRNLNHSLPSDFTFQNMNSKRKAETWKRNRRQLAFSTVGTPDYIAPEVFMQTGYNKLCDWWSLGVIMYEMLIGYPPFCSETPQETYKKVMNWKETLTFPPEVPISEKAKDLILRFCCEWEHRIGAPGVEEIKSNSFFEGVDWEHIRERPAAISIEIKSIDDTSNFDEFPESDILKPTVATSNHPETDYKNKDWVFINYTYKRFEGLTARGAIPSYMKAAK
UniProt P42680: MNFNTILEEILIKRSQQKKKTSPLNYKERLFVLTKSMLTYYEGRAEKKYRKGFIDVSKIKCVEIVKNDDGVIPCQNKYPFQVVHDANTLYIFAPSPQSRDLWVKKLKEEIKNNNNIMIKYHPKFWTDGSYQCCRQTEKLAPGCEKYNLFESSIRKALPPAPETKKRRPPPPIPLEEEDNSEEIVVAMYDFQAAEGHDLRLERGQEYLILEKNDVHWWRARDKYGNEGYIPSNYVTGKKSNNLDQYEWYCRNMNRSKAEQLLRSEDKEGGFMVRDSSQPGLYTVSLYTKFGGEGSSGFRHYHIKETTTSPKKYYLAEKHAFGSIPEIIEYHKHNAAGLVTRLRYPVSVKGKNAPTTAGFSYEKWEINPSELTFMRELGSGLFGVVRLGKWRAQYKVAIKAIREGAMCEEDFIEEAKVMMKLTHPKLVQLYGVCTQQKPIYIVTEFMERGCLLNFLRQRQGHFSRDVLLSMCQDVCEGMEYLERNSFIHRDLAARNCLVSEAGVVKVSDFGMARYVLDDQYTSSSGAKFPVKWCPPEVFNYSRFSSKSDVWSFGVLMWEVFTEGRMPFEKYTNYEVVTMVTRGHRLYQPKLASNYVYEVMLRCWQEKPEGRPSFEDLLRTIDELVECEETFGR
UniProt P29597: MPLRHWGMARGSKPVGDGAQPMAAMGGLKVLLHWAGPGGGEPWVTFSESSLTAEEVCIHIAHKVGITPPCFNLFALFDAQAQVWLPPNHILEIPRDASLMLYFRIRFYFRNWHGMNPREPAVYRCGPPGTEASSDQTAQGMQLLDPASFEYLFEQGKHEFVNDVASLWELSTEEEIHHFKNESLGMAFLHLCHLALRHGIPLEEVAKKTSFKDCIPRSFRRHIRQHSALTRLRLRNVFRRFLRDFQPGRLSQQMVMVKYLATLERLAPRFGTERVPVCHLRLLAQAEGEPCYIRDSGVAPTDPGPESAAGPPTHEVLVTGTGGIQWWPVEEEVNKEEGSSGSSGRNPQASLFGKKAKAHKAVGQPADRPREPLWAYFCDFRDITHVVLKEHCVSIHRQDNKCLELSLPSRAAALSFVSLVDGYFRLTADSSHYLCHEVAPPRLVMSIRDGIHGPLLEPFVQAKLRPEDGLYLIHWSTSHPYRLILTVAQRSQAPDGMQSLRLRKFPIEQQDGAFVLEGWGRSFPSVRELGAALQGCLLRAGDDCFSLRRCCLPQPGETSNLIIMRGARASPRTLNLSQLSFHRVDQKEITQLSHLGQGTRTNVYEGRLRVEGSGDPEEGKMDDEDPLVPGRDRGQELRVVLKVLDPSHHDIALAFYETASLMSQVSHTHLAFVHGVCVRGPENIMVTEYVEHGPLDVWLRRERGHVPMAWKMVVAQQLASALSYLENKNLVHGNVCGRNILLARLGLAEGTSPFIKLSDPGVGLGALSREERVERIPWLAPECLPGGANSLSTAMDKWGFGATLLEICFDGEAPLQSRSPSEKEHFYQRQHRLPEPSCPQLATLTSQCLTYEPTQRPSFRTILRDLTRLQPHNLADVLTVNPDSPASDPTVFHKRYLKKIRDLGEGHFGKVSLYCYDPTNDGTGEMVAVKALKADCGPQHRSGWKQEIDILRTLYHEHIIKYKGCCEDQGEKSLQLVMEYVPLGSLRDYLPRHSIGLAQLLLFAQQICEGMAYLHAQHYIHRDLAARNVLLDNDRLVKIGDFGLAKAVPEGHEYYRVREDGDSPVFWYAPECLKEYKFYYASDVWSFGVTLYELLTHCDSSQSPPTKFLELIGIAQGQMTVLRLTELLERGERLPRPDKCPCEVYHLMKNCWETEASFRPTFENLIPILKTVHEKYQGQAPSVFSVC
UniProt Q6PHR2: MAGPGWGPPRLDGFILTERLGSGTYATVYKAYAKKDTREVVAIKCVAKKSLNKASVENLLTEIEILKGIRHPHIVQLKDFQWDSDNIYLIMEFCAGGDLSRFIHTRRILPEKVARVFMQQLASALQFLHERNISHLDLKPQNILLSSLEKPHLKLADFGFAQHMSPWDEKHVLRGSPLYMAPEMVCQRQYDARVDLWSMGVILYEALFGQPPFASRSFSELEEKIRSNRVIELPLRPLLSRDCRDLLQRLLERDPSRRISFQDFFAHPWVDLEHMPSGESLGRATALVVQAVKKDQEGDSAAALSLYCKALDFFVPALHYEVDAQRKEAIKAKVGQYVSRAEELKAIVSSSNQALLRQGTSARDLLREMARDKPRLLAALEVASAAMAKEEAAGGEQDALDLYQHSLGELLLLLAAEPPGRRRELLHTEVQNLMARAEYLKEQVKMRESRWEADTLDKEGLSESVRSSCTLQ

Tests used:
Assay in all cases: number of time points (of 5) at which kinase-Nluc abundance scored as decreased, DMSO-normalised (count); higher = more persistent destabilization
Details in all cases: K562; 2-18 h
[1] = target: ROR2 (UniProt Q01974)
[2] = target: RPS6KA1 (UniProt Q15418)
[3] = target: SPHK1 (UniProt Q9NYA1)
[4] = target: SRC (UniProt P12931)
[5] = target: STK24 (UniProt Q9Y6E0)
[6] = target: STK38 (UniProt Q15208)
[7] = target: SYK (UniProt P43405)
[8] = target: TEC (UniProt P42680)
[9] = target: TYK2 (UniProt P29597)
[10] = target: ULK3 (UniProt Q6PHR2)

Measured: number of time points

C=CCN(/C=C1/C(=O)O[C@H](COC)[C@@]2(C)C1=C(O)C(=O)C1=C2[C@H](OC(C)=O)C[C@]2(C)C(=O)CC[C@@H]12)CC=C [Sonolisib] (2.5 µM)
0: [1] | [2] | [3] | [4] | [5] | [6] | [7] | [8] | [9] | [10]

CNC[C@@H](NC(=O)c1ccc(-c2nc([C@H]3CC[C@H](O)[C@@H](F)C3)cnc2N)cc1F)c1cc(F)cc(Br)c1 [Rineterkib] (10 µM)
0: [1] | [2] | [3] | [4] | [5] | [6] | [7] | [8] | [9] | [10]

COc1ccc(-c2cnc3c(-c4cccc5ncccc45)cnn3c2)cc1 (10 µM)
0: [1] | [2] | [3] | [4] | [5] | [6] | [7] | [8] | [9] | [10]

CC[C@@H]1CN(C(=O)NCC(F)(F)F)C[C@@H]1c1cnc2cnc3[nH]ccc3n12 [Upadacitinib] (10 µM)
0: [1] | [2] | [3] | [4] | [5] | [6] | [7] | [8] | [9] | [10]

CC(=O)Nc1nc(C)c(-c2cc3c(c(S(C)(=O)=O)c2)C(=O)N([C@@H](C)C2CC2)C3)s1 (2.5 µM)
0: [1] | [2] | [3] | [4] | [5] | [6] | [7] | [8] | [9] | [10]

COc1cc(Nc2nc3ccccc3nc2NS(=O)(=O)c2ccc(NC(=O)c3ccc(C)c(OC)c3)cc2)cc(OC)c1 (10 µM)
0: [1] | [2] | [3] | [4] | [5] | [6] | [7] | [8] | [9] | [10]

Cc1ccc(CNC(=O)N2CCC[C@]3(CCN(Cc4ccc(Cl)c(Cl)c4)C3)C2)cc1 (10 µM)
0: [1] | [2] | [3] | [4] | [5] | [6] | [7] | [8] | [9] | [10]

COC(=O)[C@]1(C)CC[C@]2(C(=O)O[C@@H]3O[C@H](CO)[C@@H](O)[C@H](O)[C@H]3O)CC[C@]3(C)C(=CC[C@@H]4[C@@]5(C)C[C@H](O)[C@H](O[C@@H]6OC[C@@H](O[C@@H]7O[C@H](CO)[C@@H](O)[C@H](O)[C@H]7O)[C@H](O)[C@H]6O)[C@@](C)(CO)C5CC[C@]43C)[C@H]2C1 (stereo not given in full) [Esculentoside H] (10 µM)
0: [1] | [2] | [3] | [4] | [5] | [6] | [7] | [8] | [9] | [10]

CN(C)CCCNc1ccn2ncc(-c3ccc4c(c3)OCO4)c2n1 (10 µM)
0: [1] | [2] | [3] | [4] | [5] | [6] | [7] | [8] | [9] | [10]

CC(C)=CCC/C(C)=C/CC/C(C)=C/CSc1ccccc1C(=O)O [Salirasib] (10 µM)
0: [1] | [2] | [3] | [4] | [5] | [6] | [7] | [8] | [9] | [10]

NC(=O)c1nc(-c2c(F)cccc2Cl)oc1Nc1ccc(C(=O)N2CCOCC2)cc1 (10 µM)
0: [1] | [2] | [3] | [4] | [5] | [6] | [7] | [8] | [9] | [10]

Cn1cc(-c2cn3nccc3c(-c3cnn([C@]4(CC#N)C[C@@H](C#N)C4)c3)n2)cn1 (10 µM)
0: [1] | [2] | [3] | [4] | [5] | [6] | [7] | [8] | [9] | [10]

Cn1sc(=O)n(Cc2ccccc2)c1=O (10 µM)
0: [1] | [2] | [3] | [4] | [5] | [6] | [7] | [8] | [9] | [10]

O=c1cc(-c2ccc(O)cc2)oc2cc(O)c(O)c(O)c12 [Scutellarein] (10 µM)
0: [1] | [2] | [3] | [4] | [5] | [6] | [7] | [8] | [9] | [10]

COc1ccc(F)cc1C(=O)NCc1ccc(-c2nn([C@@H](C)C(F)(F)F)c(N)c2C(N)=O)cc1 [Pirtobrutinib] (10 µM)
0: [1] | [2] | [3] | [4] | [5] | [6] | [7] | [8] | [9] | [10]

CNC(=O)c1ccc(-c2cnc3ncc(Cc4ccc5ncccc5c4)n3n2)cc1F [Capmatinib] (10 µM)
0: [1] | [2] | [3] | [4] | [5] | [6] | [7] | [8] | [9] | [10]

CNCCOc1ccccc1C(C)(C)Nc1nccn(-c2cc(C(=O)NC3CC3)ccc2C)c1=O [p38α inhibitor 2] (10 µM)
0: [1] | [2] | [3] | [4] | [5] | [6] | [7] | [8] | [9] | [10]

O=c1cc(N2CCOCC2)oc2c1ccc1ccccc12 (2 µM)
0: [1] | [2] | [3] | [4] | [5] | [6] | [7] | [8] | [9] | [10]

Cc1nc(NC(=O)N2CCC[C@H]2C(N)=O)sc1-c1csc(C(C)(C)C)n1 (10 µM)
0: [1] | [2] | [3] | [4] | [5] | [6] | [7] | [8] | [9] | [10]

Cc1cccc(-c2[nH]c(C(C)(C)C)nc2-c2ccc3c(c2)OCO3)n1 (2.5 µM)
0: [1] | [2] | [3] | [4] | [5] | [6] | [7] | [8] | [9] | [10]

Cc1cc(=O)[nH]c(=S)[nH]1 [Methylthiouracil] (10 µM)
0: [1] | [2] | [3] | [4] | [5] | [6] | [7] | [8] | [9] | [10]

CN(c1ccc(C(F)(F)F)cc1)S(=O)(=O)c1ccc(C(=O)Nc2nc(-c3ccccn3)cs2)cc1 (2.5 µM)
0: [1] | [2] | [3] | [4] | [5] | [6] | [7] | [8] | [9] | [10]

Cc1ccc(Nc2c(C(N)=O)cnc3cc(-c4ccncc4)ccc23)cc1C [cFMS Receptor Inhibitor II] (10 µM)
0: [1] | [2] | [3] | [4] | [5] | [6] | [7] | [8] | [9] | [10]

COc1ccc(C2CC(c3ccc(Cl)cc3)=NN2c2nc(-c3ccncc3)cs2)cc1 (stereo not given) [mTOR inhibitor-8] (10 µM)
0: [1] | [2] | [3] | [4] | [5] | [6] | [7] | [8] | [9] | [10]

O=C(O)/C=C/c1cc(Br)c(Br)c(Br)c1Br (10 µM)
0: [1] | [2] | [3] | [4] | [5] | [6] | [7] | [8] | [9] | [10]

CS(=O)(=O)N1CCc2c(-c3cnc(N)nc3)nc(N3CCOCC3)nc21 (10 µM)
0: [1] | [2] | [3] | [4] | [5] | [6] | [7] | [8] | [9] | [10]

CNS(=O)(=O)C[C@H]1CC[C@H](N(C)c2[nH]cnc3nccc2-3)CC1 [Oclacitinib (maleate)] (10 µM)
0: [1] | [2] | [3] | [4] | [5] | [6] | [7] | [8] | [9] | [10]

Cc1ccc(-n2c(-c3ccc(O)cc3O)n[nH]c2=O)cc1 (10 µM)
5: [9] | [10]
3: [8]
0: [1] | [2] | [3] | [4] | [5] | [7]
2: [6]

CC(C)Cn1cc(C#N)c2cc(Oc3ccc(NC(=O)[C@@H]4CCCN4)cc3)ccc21 (10 µM)
0: [1] | [2] | [3] | [4] | [5] | [6] | [7] | [8] | [9] | [10]

2 consecutive records out of the list so far, quoted:
Cc1ccc(-n2c(-c3ccc(O)cc3O)n[nH]c2=O)cc1 (10 µM)
5: [9] | [10]
3: [8]
0: [1] | [2] | [3] | [4] | [5] | [7]
2: [6]

CC(C)Cn1cc(C#N)c2cc(Oc3ccc(NC(=O)[C@@H]4CCCN4)cc3)ccc21 (10 µM)
0: [1] | [2] | [3] | [4] | [5] | [6] | [7] | [8] | [9] | [10]

Next part.

Cc1ncc(F)c(Nc2n[nH]c3c2CN(C(=O)N2C[C@@H](C)N(CC4CCOCC4)C[C@@H]2C)C3(C)C)n1 (10 µM)
0: [1] | [2] | [3] | [4] | [5] | [6] | [7] | [8] | [9] | [10]

CNC(=O)Nc1cc(Oc2cncc(C)c2)c(-c2ccc(OCC(C)(C)O)nc2)cn1 (2.5 µM)
0: [1] | [2] | [3] | [4] | [5] | [6] | [7] | [8] | [9] | [10]

O=C(N=c1sccn1Cc1ccccc1)c1c[nH]c2ncccc12 (10 µM)
0: [1] | [2] | [3] | [4] | [5] | [6] | [7] | [8] | [9] | [10]
